Article PMC12586529
No constants are given. Whether binding was seen depends on the method and setting. Binding seen in cells or lysates may run through a third protein. A result given as binding can be weak or reduced; the word gives no strength.

Experiments:
[1] = molecular target: c-Myc 1-150 aa segment (human); assay: co-IP; lysates incubated with a target-specific primary antibody 2-4 h at 4 °C, then Protein A/G agarose or magnetic beads 1-2 h; washed with lysis buffer; SDS-PAGE and Western blot
[2] = molecular target: c-Myc 1-50 aa segment (human); assay: as above

binding [1]: binds
binding [2]: binds
B1: Protein kinase C iota (Prkci) (enzyme, UniProt P41743 1-596)
chain: MPTQRDSSTMSHTVAGGGSGDHSHQVRVKAYYRGDIMITHFEPSISFEGLCNEVRDMCSFDNEQLFTMKWIDEEGDPCTVSSQLELEEAFRLYELNKDSELLIHVFPCVPERPGMPCPGEDKSIYRRGARRWRKLYCANGHTFQAKRFNRRAHCAICTDRIWGLGRQGYKCINCKLLVHKKCHKLVTIECGRHSLPQEPVMPMDQSSMHSDHAQTVIPYNPSSHESLDQVGEEKEAMNTRESGKASSSLGLQDFDLLRVIGRGSYAKVLLVRLKKTDRIYAMKVVKKELVNDDEDIDWVQTEKHVFEQASNHPFLVGLHSCFQTESRLFFVIEYVNGGDLMFHMQRQRKLPEEHARFYSAEISLALNYLHERGIIYRDLKLDNVLLDSEGHIKLTDYGMCKEGLRPGDTTSTFCGTPNYIAPEILRGEDYGFSVDWWALGVLMFEMMAGRSPFDIVGSSDNPDQNTEDYLFQVILEKQIRIPRSLSVKAASVLKSFLNKDPKERLGCHPQTGFADIQGHPFFRNVDWDMMEQKQVVPPFKPNISGEFGLDNFDSQFTNEPVQLTPDDDDIVRKIDQSEFEGFEYINPLLMSAEECV
